Consider 2 molecules from paper PMC6761256.

No constants are given. Whether binding was seen depends on the method and setting. Binding seen in cells or lysates may run through a third protein. Some results given as binding are weak or reduced against the parent protein; the word gives no strength.

Assay [1] has as its target T1, mixed lineage kinase domain-like protein (rat (endogenous in brain tissue)) (UniProt D3ZKP6).
T1 sequence: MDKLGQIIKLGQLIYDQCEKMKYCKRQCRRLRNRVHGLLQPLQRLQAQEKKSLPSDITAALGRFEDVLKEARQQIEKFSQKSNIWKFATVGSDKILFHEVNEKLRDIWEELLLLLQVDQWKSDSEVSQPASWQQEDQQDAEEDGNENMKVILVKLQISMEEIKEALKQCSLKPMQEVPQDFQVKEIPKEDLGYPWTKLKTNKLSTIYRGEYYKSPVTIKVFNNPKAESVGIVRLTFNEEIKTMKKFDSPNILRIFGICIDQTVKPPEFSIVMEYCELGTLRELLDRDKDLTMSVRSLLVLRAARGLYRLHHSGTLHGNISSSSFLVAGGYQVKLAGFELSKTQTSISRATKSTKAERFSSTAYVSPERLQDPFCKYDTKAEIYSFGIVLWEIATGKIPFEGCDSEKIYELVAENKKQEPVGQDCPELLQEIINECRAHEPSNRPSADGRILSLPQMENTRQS
Briefly: co-IP; endogenous proteins in lysates of rat brain tissue 6 h after CCI (weak RIPA lysis buffer, pre-cleared with protein A/G agarose); 500 ul extract with 2 ug primary antibody (RIP3 or MLKL precipitated) overnight at 4°C, protein A/G agarose 4 h at 4°C, immunoblot; also in rats given AAV-shA20 or AAV-shCtrl, Nec-1 or melatonin. A general note: In western blotting, separated proteins are transferred to a membrane and probed.

Assay [2] has as its target T2, RIP3 (rat (endogenous in brain tissue)) (UniProt Q9Z2P5).
T2 sequence: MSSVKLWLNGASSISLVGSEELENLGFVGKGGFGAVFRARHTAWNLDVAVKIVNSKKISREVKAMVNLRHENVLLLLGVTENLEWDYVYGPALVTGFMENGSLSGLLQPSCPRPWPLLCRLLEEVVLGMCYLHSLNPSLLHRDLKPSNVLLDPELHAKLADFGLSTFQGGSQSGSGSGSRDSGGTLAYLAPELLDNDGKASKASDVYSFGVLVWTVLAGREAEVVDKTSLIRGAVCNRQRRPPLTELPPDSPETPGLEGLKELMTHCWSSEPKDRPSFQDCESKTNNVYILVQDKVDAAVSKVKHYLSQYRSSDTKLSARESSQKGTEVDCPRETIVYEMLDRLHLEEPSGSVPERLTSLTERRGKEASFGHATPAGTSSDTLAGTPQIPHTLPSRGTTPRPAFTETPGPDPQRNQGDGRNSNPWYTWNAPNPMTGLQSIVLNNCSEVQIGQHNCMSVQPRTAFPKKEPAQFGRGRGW
The description is as above.

B1: RIP3 (protein, UniProt Q9Z2P5 1-478)
chain: MSSVKLWLNGASSISLVGSEELENLGFVGKGGFGAVFRARHTAWNLDVAVKIVNSKKISREVKAMVNLRHENVLLLLGVTENLEWDYVYGPALVTGFMENGSLSGLLQPSCPRPWPLLCRLLEEVVLGMCYLHSLNPSLLHRDLKPSNVLLDPELHAKLADFGLSTFQGGSQSGSGSGSRDSGGTLAYLAPELLDNDGKASKASDVYSFGVLVWTVLAGREAEVVDKTSLIRGAVCNRQRRPPLTELPPDSPETPGLEGLKELMTHCWSSEPKDRPSFQDCESKTNNVYILVQDKVDAAVSKVKHYLSQYRSSDTKLSARESSQKGTEVDCPRETIVYEMLDRLHLEEPSGSVPERLTSLTERRGKEASFGHATPAGTSSDTLAGTPQIPHTLPSRGTTPRPAFTETPGPDPQRNQGDGRNSNPWYTWNAPNPMTGLQSIVLNNCSEVQIGQHNCMSVQPRTAFPKKEPAQFGRGRGW
Consider B1, for which the binding entry in assay [1] is listed as “binds”.

B2: mixed lineage kinase domain-like protein (protein, UniProt D3ZKP6 1-462)
chain: MDKLGQIIKLGQLIYDQCEKMKYCKRQCRRLRNRVHGLLQPLQRLQAQEKKSLPSDITAALGRFEDVLKEARQQIEKFSQKSNIWKFATVGSDKILFHEVNEKLRDIWEELLLLLQVDQWKSDSEVSQPASWQQEDQQDAEEDGNENMKVILVKLQISMEEIKEALKQCSLKPMQEVPQDFQVKEIPKEDLGYPWTKLKTNKLSTIYRGEYYKSPVTIKVFNNPKAESVGIVRLTFNEEIKTMKKFDSPNILRIFGICIDQTVKPPEFSIVMEYCELGTLRELLDRDKDLTMSVRSLLVLRAARGLYRLHHSGTLHGNISSSSFLVAGGYQVKLAGFELSKTQTSISRATKSTKAERFSSTAYVSPERLQDPFCKYDTKAEIYSFGIVLWEIATGKIPFEGCDSEKIYELVAENKKQEPVGQDCPELLQEIINECRAHEPSNRPSADGRILSLPQMENTRQS
On to B2, for which the binding entry in assay [2] is reported as “binds”.
